# Experimental data published in PMC6061700 (Toxicological Sciences, 2018).
# Tests used:
# [1] = test system: human induced pluripotent stem cell-derived cardiomyocytes (hiPSC-CMs)
# [2] = test system: Cellular Dynamics International [CDI] human stem cell-derived cardiomyocytes
smiles,measurement,setting,value
Cc1cccc(CCN2CCC(C(=O)c3ccc(NS(C)(=O)=O)cc3)CC2)n1 [E-4031],FPDc20: median,[1],3 nM
same,FPDc20: span,[1],1 log unit
same,effect on beating,[2],cessation of beating
